Reference: patent publication US9434724B2, “Quinuclidines for modulating alpha 7 activity” (priority 2014, dated 2016)
At least one structure is not confirmed: it was looked up by name or label, or the drawing left a doubt.

Amino acid sequences for entries named in this document (tags omitted). Residues count along the entry.
UniProt P36544, 23-502 limits assumed: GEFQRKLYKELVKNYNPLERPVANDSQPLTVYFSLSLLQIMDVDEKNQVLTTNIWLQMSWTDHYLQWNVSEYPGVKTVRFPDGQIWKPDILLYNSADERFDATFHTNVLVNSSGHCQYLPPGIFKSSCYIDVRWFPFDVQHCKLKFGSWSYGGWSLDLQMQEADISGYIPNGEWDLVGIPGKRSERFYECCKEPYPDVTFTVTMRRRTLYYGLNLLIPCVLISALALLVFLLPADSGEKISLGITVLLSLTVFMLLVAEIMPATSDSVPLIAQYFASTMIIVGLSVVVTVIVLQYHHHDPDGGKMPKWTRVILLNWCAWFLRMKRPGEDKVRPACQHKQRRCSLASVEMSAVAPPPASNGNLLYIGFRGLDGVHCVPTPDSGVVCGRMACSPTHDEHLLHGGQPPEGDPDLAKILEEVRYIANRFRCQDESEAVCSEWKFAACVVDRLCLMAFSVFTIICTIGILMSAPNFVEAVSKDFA

Target: Human α7 NAChR (Homo sapiens (Human), UniProt P36544)
Assay: Electrophysiology screen at 1 μM in Xenopus laevis oocytes
Assay type: cell-based
Conditions: 1 μM test compound; Imax = maximal current produced by 3 mM ACh
Description: Human α7 NAChR plasmid was prepared by GeneWiz from accession NM_000746.5. Human α7 NAChR mRNA was prepared by TriLink at a concentration near 1 μg/μL. The human α7 NAChR mRNA was diluted in sterile water to a working concentration near 10 ng/μL.
Oocytes were obtained from Xenopus laevis frogs and treated with collagenase by Ecocyte Bioscience. Oocytes were injected with the working concentration of α7 NAChR mRNA at a volume of 50 nL for a total of approximately 0.5 ng of α7 NAChR mRNA. Oocytes were maintained in Barth's solution at a temperature of 16° C. The Barth's solution was replaced daily.
Two-electrode voltage clamp recordings were made 3-14 days following mRNA injections at a holding voltage of −70 mV. The NAChR recordings were performed in Ca^++-free Ringer solution (115 mM NaCl, 2 mM KCl, 1.8 mM BaCl2, 5 mM HEPES; pH˜7.4) to limit Ca^++-activated chloride currents.
In all oocyte recordings, drug and wash solutions were applied using a custom-designed microcapillary “linear array” which allows rapid application of agonists. Currents were recorded on a PC-based computer (PClamp, Molecular Devices, Sunnyvale, Calif.). […]
Stocks of test compounds were prepared in DMSO. […] The test solution was perfused onto the oocyte until a peak current was recorded. […]

## COc1cc2c(C(=O)OCC34CCN(CC3)CC4)c[nH]c2cc1C.Cl [Compound 79, quinuclidin-4-ylmethyl 5-methoxy-6-methyl-1H-indole-3-carboxylate hydrochloride]
  I/Imax: 0.259
